# Measured values: PubChem BioAssay AID1117319 (Southern Research Institute, 2015)
# Sequences of proteins named here, by UniProt entry; tags and fusion partners are left off. A change or cut given only in a name is not applied to a line headed by its entry.
# UniProt P69720: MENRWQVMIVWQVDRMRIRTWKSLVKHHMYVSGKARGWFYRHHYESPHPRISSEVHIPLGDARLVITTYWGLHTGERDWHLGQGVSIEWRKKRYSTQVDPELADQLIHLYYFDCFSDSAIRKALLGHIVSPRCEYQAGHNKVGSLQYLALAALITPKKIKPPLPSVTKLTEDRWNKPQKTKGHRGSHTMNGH
# UniProt P69721: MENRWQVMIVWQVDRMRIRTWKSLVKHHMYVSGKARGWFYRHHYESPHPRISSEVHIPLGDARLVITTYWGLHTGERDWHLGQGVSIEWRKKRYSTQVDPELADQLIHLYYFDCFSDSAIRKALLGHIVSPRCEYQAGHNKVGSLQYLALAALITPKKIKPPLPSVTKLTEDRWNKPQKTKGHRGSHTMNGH
# UniProt P69722: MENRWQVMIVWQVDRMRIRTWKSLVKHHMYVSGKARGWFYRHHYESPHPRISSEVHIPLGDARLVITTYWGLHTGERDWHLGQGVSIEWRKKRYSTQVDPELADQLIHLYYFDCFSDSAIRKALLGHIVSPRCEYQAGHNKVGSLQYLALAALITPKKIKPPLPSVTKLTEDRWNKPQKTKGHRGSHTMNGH
# UniProt P69723: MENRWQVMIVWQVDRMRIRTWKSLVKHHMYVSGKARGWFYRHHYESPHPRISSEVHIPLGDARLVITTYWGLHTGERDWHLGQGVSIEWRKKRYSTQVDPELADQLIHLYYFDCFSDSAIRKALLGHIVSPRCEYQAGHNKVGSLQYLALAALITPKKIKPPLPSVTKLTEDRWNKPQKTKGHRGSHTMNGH
# UniProt Q9HC16: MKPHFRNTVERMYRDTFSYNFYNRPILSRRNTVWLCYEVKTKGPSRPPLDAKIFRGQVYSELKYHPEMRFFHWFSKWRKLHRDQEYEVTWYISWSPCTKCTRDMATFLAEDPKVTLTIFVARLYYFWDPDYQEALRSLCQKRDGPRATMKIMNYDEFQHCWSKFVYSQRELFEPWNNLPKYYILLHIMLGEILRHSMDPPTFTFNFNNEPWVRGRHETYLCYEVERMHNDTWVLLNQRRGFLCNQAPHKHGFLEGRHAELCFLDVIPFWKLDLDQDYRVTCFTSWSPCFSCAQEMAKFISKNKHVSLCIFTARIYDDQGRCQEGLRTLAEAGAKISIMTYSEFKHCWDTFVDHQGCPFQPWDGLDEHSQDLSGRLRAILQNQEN
# In all, about 260,000 compounds went through this assay and about 1,500 (0.58%) were called active. Inconclusive means that the source gave no clear call. Such entries were picked first, then a sample of the others.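 Rule for the calls: active = inhibition above a set limit at one or more doses, reproduced on every date tested; inconclusive = results disagree between test dates, or hit never tested in dose response; inactive = the rest.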
# Target: Virion infectivity factor (Human immunodeficiency virus type 1 group M subtype B (isolate BH10)) + Virion infectivity factor (Human immunodeficiency virus type 1 group M subtype B (isolate BRU/LAI)) + Virion infectivity factor (Human immunodeficiency virus type 1 group M subtype B (isolate PCV12)) + Virion infectivity factor (Human immunodeficiency virus type 1 group M subtype B (isolate HXB2)) + DNA dC->dU-editing enzyme APOBEC-3G (Homo sapiens) (UniProt P69720+P69721+P69722+P69723+Q9HC16)
# Assay: inhibitors of Vif binding to APOBEC3G peptide, primary screen, biochemical, TR-FRET, GST-Vif 1-94, biotin-A3G peptide, dose response retest (AID 1117319);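 note: Vif residues 1-94 fused to GST binding biotinylated APOBEC3G peptide 110-148; 0% = full assay without inhibitor and 100% = GST in place of GST-Vif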
# Conditions: active compounds read high
row,Compound,inhibition
1,CN(C1CC(C)(C)NC(C)(C)C1)S(=O)(=O)CC12CCC(CC1=O)C2(C)C (stereo unspecified),inconclusive: 58.4%
2,O=C(CCl)NC(=O)NC12CC3CC(CC(C3)C1)C2,inconclusive: 43.1%
3,Cc1ccc(CS(=O)(=O)CCC(=O)NCCN(C)Cc2ccccc2)cc1,inconclusive: 43.1%
4,CCc1nc(SCC(=O)c2ccc(Cl)s2)c2oc3ccccc3c2n1,inconclusive: 34%
5,CCCCOc1ccc(-c2[nH]ncc2C=O)cc1,inconclusive: 52%
6,CCC(=O)Nc1cccc(C2=NOC3(C2)C[C@@H](C(N)=O)N(C(=O)c2cc([N+](=O)[O-])cc([N+](=O)[O-])c2)C3)c1 (stereo partly specified),inactive: 9.27%
7,Cc1ccc(/C=N/Nc2cccc3cccnc23)c(O)c1,inconclusive: 62.1%
8,Cc1cc(CNC(=O)CCc2nnc(CCCCc3ccccc3)o2)nn1C,inactive: -5.35%
9,CN=C1SC(CC(=O)Nc2sc3c(c2C#N)CCCC3)C(=O)N1C (stereo unspecified),inconclusive: 61.1%
10,COc1ccc(NS(=O)(=O)c2cccc(NC(=O)CCC(=O)c3cccs3)c2)cc1,inconclusive: 42.6%
11,Cc1ccc(S(=O)(=O)[N-]c2nc3ccccc3nc2-[n+]2cc(C)cc(C)c2)cc1,inconclusive: 60.6%
12,CCCC(=O)Nc1c2c(nn1-c1ccc(C)cc1C)CSC2,inconclusive: 35.7%
13,O=C(Nc1nc(-c2ccc(S(=O)(=O)N3CCOCC3)cc2)cs1)c1ccccc1,inconclusive: 36.7%
14,CCCCNC(=O)CO/N=C(\C)c1cc2ccccc2o1,inconclusive: 45.7%
15,CSCCC(NC(N)=O)C(=O)Nc1ccc(F)c(Cl)c1 (stereo unspecified),inconclusive: 33.7%
16,COc1ccc(C(C)C)cc1S(=O)(=O)n1ccnc1C,inconclusive: 45.6%
17,CCN(CC)S(=O)(=O)c1ccc(Cl)c(C(=O)N2CCc3ccccc32)c1,inconclusive: 55.4%
18,CCOC(=O)c1c(NC(=O)C2CC(Cl)=CCC2C(=O)O)sc2c1CCCCC2 (stereo unspecified),inconclusive: 33.5%
19,Cn1c(SCC(=O)NC2CCCCC2)nnc1-c1cc2cc(Cl)ccc2o1,inconclusive: 39.6%
20,CCOC(=O)C1CCN(c2ncnc3c2cnn3-c2ccc(OC)cc2)CC1,inconclusive: 45.8%
21,Cc1c(-c2ccc(Cl)cc2)oc(=O)c2c(N)n(-c3ccccc3)nc12,inconclusive: 34.7%
22,COC(=O)c1sc(S(=O)(=O)NCc2cccs2)c(C(=O)OC)c1C,inconclusive: 35.9%
23,COc1ccc(CCNS(=O)(=O)c2ccc(OC)cc2)cc1,inactive: -5.66%

# Filtered by structure, the compounds so far with a furan ring, fused or not (3)
row,Compound,inhibition
4,CCc1nc(SCC(=O)c2ccc(Cl)s2)c2oc3ccccc3c2n1,inconclusive: 34%
14,CCCCNC(=O)CO/N=C(\C)c1cc2ccccc2o1,inconclusive: 45.7%
19,Cn1c(SCC(=O)NC2CCCCC2)nnc1-c1cc2cc(Cl)ccc2o1,inconclusive: 39.6%

# Additional records follow.

row,Compound,inhibition
1,CCc1ccc(NC(=O)CCS(=O)(=O)c2ccc(Br)cc2)cc1,inactive: 11.1%
2,Cc1ccc2cccc(O)c2[n+]1[O-],inactive: 18.8%
3,CCc1nnc(NC(=O)CSc2nc(-c3ccc(OC)cc3)ns2)s1,inconclusive: 39.2%
4,CC1CN(c2ccccc2)CCN1Cc1nc(Cc2ccccc2)no1 (stereo unspecified),inactive: -4.62%
5,COc1ccc2c(c1)CC(C1(O)C(=O)N(C)c3ccccc31)C2=O (stereo unspecified),inactive: -5.17%
6,Cc1nonc1-c1ccc2c(c1)OCO2,inconclusive: 54.7%
7,FC(F)(F)c1ccc(Cl)c(-n2c(-c3cc(-c4ccco4)[nH]n3)n[nH]c2=S)c1,inconclusive: 47.2%
8,COc1ccc(S(=O)(=O)N2CCCC2C(=O)NCc2cccs2)cc1 (stereo unspecified),inconclusive: 31.2%
9,Cc1ccc(C(C)C)c(OCc2ccc(C(=O)N/N=C/c3ccc(O)c(O)c3)cc2)c1,inconclusive: 58.2%
10,Cc1cccc(N=C/C(C(=O)C(F)(F)F)=C(\O)c2ccco2)c1,inconclusive: 46.2%
11,CCc1nnc(NC(=O)CSc2nnc(-c3ccccc3NC(=O)c3ccccc3)o2)s1,inconclusive: 37.1%
12,CC(C)Nc1ccc(Nc2ccnc3cc4ccccc4cc23)cc1,inconclusive: 34.4%
13,COc1cccc(OC)c1C(=O)Nc1ccccc1NC(=O)c1c(OC)cccc1OC,inactive: -6.67%
14,O=C(N/N=C/c1ccccc1)c1c(O)c2ccccc2[nH]c1=O,inconclusive: 37.6%
15,CC(C)c1ccc(CN(C(=O)/C=C/c2ccco2)C2CCS(=O)(=O)C2)cc1 (stereo unspecified),inactive: 30.9%
16,O=C(O)CCC(=O)c1ccc2c(c1)OCCCO2,inconclusive: 46.8%
17,O=C(Oc1ccc(N(Cc2cccs2)C2=NS(=O)(=O)c3ccccc32)cc1)c1ccc(Cl)cc1,inconclusive: 36.8%
18,O=C(CNC(=O)c1ccc(Br)o1)NNC(=O)c1n[nH]c(=O)c2ccccc12,inconclusive: 48.7%
19,CNc1nc(Nc2ccc(Br)cc2)nc(N)c1[N+](=O)[O-],inconclusive: 36.1%
20,Cc1ccc(C2=NOC(=O)/C2=C\C=C\c2ccccc2)cc1,inconclusive: 39.8%
21,CCN1C(=O)C(O)(CC(=O)c2ccccn2)c2ccccc21 (stereo unspecified),inconclusive: 34.8%
22,CCN(CC)S(=O)(=O)c1ccc(NC(=O)COC(=O)c2ccc(-n3nc(C)cc3C)cc2)cc1,inconclusive: 53.3%
23,COc1ccc(N=c2ssnc2Cl)cc1,inconclusive: 36%

row,Compound,inhibition
1,Cn1c(NCCN2CCCCC2)cc(=O)n(C)c1=O,inconclusive: 38.2%
2,COc1ccc(C2N=C(c3ccccc3)C(C)(C)N2O)cc1OC (stereo unspecified),inconclusive: 36%
3,Cc1csc(NC(=O)COc2ccc3c(C)cc(=O)oc3c2)n1,inactive: -13.9%
4,Cc1ccccc1NC(=O)c1sc2nc3c(c(-c4ccco4)c2c1N)CCC3,inconclusive: 37.1%
5,Cc1cc(C(=O)N/N=C2\CC(=O)c3ccccc32)c(C)n1-c1ccccc1,inconclusive: 50.3%
6,COc1ccccc1N(CC(=O)Nc1ccccc1C(=O)NCC(C)C)S(C)(=O)=O,inconclusive: 51.3%
7,COc1cc(NC(=O)Cn2cnc(S(=O)(=O)N3CCOCC3)c2)cc(OC)c1OC,inconclusive: 42.6%
8,CCC(=O)N1CCN(CCN=CC2=C(O)CC(C)(C)CC2=O)CC1,inconclusive: 33.2%
9,Cc1onc(-c2ccccc2Cl)c1C(=O)NCc1ccccn1,inactive: -1.21%
10,CCN(CC)c1ccc(NC(=O)c2cccnc2)cc1,inconclusive: 60.8%
11,[O-]C1=N/[N+](=C/c2ccccc2)CC1,inconclusive: 43.6%
12,Cn1cc(C(=O)CCl)c2ccccc21,inconclusive: 45.3%
13,O=C1CC(NS(=O)(=O)c2cccnc2)CN1c1ccc(F)cc1 (stereo unspecified),inactive: -4.88%
14,Cc1ccc(C(=O)Nc2cccnc2)cc1[N+](=O)[O-],inconclusive: 52.4%
15,CC(=O)N1CCc2ccc(NC(=O)c3c(-c4c(Cl)cccc4Cl)noc3C)cc21,inactive: -4.69%
16,Cc1ccc(C)c(OCC(=O)Nn2c(C)nc3ccccc3c2=O)c1,inactive: -5.76%
17,CCOC(=O)C1=C(C)NC(C)=C(C(=O)OCC)C1c1ccco1,inactive: 22.4%
18,Cc1ccc(-c2cc(C(F)(F)F)c(C#N)c(SCCC#N)n2)o1,inconclusive: 42.4%
19,O=[N+]([O-])c1ccc(O)c(/C=N/Nc2ccccn2)c1,inconclusive: 39.5%
20,O=C(c1ccccc1)N1CCN(c2nc3ccc([N+](=O)[O-])cc3s2)CC1,inconclusive: 45.6%
21,COc1cccc(/C=N/NC(=O)C(=O)N2CCCC2)c1OC,inconclusive: 57.2%
22,CCOc1cccc(C(=O)Nc2cccc(NC(=O)c3ccco3)c2)c1,inconclusive: 47.7%
23,CC(=O)Nc1cccc(C(=O)/C=C/c2ccco2)c1,inconclusive: 50.6%

row,Compound,inhibition
1,CCCC(C(=O)NCc1ccccc1)N(C(=O)Cn1nnc(-c2cccs2)n1)c1ccc2c(c1)OCCO2 (stereo unspecified),inconclusive: 44.4%
2,Cc1noc2ncnc(Sc3ccccc3Cl)c12,inconclusive: 35.3%
3,CCn1ccnc1CN(C)Cc1nc(Cc2cccc(C(F)(F)F)c2)no1,inconclusive: 36%
4,O=C(NNc1ncnc2c1cnn2-c1ccccc1)c1ccco1,inconclusive: 55.7%
5,Cc1nn(C)c(C)c1S(=O)(=O)N(CC(=O)NCCN1CCOCC1)c1ccc(C(C)C)cc1,inconclusive: 51.8%
6,CCOC(=O)c1c(C)[nH]c(C(=O)NCc2ccco2)c1C,inconclusive: 39%
7,COc1ccc(NCC(=O)N/N=C/C=C/c2ccccc2[N+](=O)[O-])cc1,inconclusive: 51%
8,Nc1ccc(S(=O)(=O)c2ccc(Cl)cc2)cc1,inconclusive: 41%
9,COc1cccc(/C=N/n2c(-c3cccs3)n[nH]c2=S)c1,inconclusive: 56.3%
10,CCn1c(Cc2ccc(OC)cc2)nnc1SCC(=O)Nc1nc2ccccc2s1,inconclusive: 35.5%
11,CCOc1ccccc1NC(=O)NCc1ccco1,inconclusive: 42.5%
12,CC1CCN(S(=O)(=O)c2ccc(C(C)C)cc2)CC1,inactive: -4.55%
13,Cc1cccc(C)c1NC(=O)NCc1ccco1,inconclusive: 59.3%
14,Cc1ccc(-c2csc(NNC(=O)c3ccccc3)n2)cc1,inconclusive: 41.6%
15,CCOc1ccc(/C(O)=C2/C(=O)C(=O)N(CCOCCO)C2c2ccc(F)cc2)cc1 (stereo unspecified),inconclusive: 0.43%
16,CCOc1ncccc1C(=O)OCC(=O)Nc1ccc(C)c(S(=O)(=O)N2CCOCC2)c1,inconclusive: 44.3%
17,Cc1cc(-c2ccccc2)nc(N/N=C/c2ccco2)n1,inconclusive: 55.8%
18,COc1ccc(OC)c(Nc2nc(-c3sc(N)nc3C)cs2)c1,inactive: 7.55%
19,CC(=O)N(CCC1(C(C)C)CCOC(C)(C)C1)Cc1ccco1 (stereo unspecified),inconclusive: 37%
20,Cc1ccc(N(CCO)C(=S)Nc2ccccc2)cc1,inactive: 1.36%
21,COC(=O)CC1SC(=O)NC1=Nc1ccc(C)cc1 (stereo unspecified),inactive: 19.1%
22,Cn1c(-c2cc(Br)ccc2O)n[nH]c1=S,inconclusive: 36.2%

# A portion from the list above, for reference:
row,Compound,inhibition
5,Cc1nn(C)c(C)c1S(=O)(=O)N(CC(=O)NCCN1CCOCC1)c1ccc(C(C)C)cc1,inconclusive: 51.8%
6,CCOC(=O)c1c(C)[nH]c(C(=O)NCc2ccco2)c1C,inconclusive: 39%
7,COc1ccc(NCC(=O)N/N=C/C=C/c2ccccc2[N+](=O)[O-])cc1,inconclusive: 51%
8,Nc1ccc(S(=O)(=O)c2ccc(Cl)cc2)cc1,inconclusive: 41%
